Results deposited as PubChem BioAssay AID1053208 (Peter MacCallum Cancer Centre, 2014).
Purpose: 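Genes whose silencing cuts survival of bone tumour cells only with doxorubicin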 (primary screen). Cell system: mouse osteosarcoma cells, early-passage culture from an engineered mouse model of fibroblastic bone tumour. Reagents: siRNA pool against mouse genes, 40 nM. Duration: about 120 h (48 h before drug, then 72 h with drug). Challenge: doxorubicin 100 nM for 72 h, roughly 30-40% inhibitory dose. Measurement: 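Luminescent ATP signal taken as viability with or without 100 nM doxorubicin for 72 h; mean of two wells set against non-targeting siRNA and turned into robust z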. Direction: viability z-score with doxorubicin: higher = more viable cells under doxorubicin; viability z-score without drug: higher = more viable cells with knock-down alone. Hit rule: 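a pool counts as active when its viability z-score with doxorubicin is -2 or below and its z-score without drug lies between -2 and 2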.
The deposit covers about 17,000 reagents; this is a part drawn at random. Of all reagents, 788 (4.7%) are marked active. 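Calls rest on z-score classes alone; an extra cut-off of viability at most 70% of control was not applied to them.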 Entries without a mark were called inactive. Further read-outs or replicates are left out here.

gene knocked down	combined z-score class	viability z-score with doxorubicin	viability z-score without drug
Tbc1d7	no change with or without drug	-0.34	-0.17
Sirt5	no change with or without drug	-0.45	0
Or4c123	no change with or without drug	-0.22	0.34
Cdc16	no change with or without drug	-1.24	-0.17
Myo1c	no change with or without drug	0.79	0.17
Arhgef28	no change with or without drug	-0.67	-0.17
Chd4	no change with or without drug	0.56	-1.01
Skic8	no change with or without drug	0	0.51
Senp5	no change with or without drug	0.34	-0.17
Cfap300	no change with or without drug	-0.22	-0.84
Ppp1r16a	no change with or without drug	1.35	1.18
Acad11	no change with or without drug	0.45	0.51
Or13a26	no change with or without drug	1.35	1.52
Gdf3	no change with or without drug	-0.34	-0.17
Or10q1b	no change with or without drug	0.34	-0.51
Or4c107	no change with or without drug	0.56	0.17
Tmlhe	high cell count without drug only	1.8	3.04
Grcc10	no change with or without drug	1.01	1.01
Slc51b	no change with or without drug	-1.35	-0.51
Mmp23	low cell count with doxorubicin only (active)	-2.02	0.51

2 entries from above, ordered by “viability z-score without drug”, lowest first:
gene knocked down	combined z-score class	viability z-score with doxorubicin	viability z-score without drug
Chd4	no change with or without drug	0.56	-1.01
Arhgef28	no change with or without drug	-0.67	-0.17
